doi:10.1101/2021.03.25.436271
These are yes or no findings as the source states them, for the method shown. In cells and extracts the contact can be indirect. A yes stands for co-enrichment or nearness to the bait. Other partners may have been found.

Sequences of proteins named here, by UniProt entry; tags and fusion partners are left off.
UniProt Q13158: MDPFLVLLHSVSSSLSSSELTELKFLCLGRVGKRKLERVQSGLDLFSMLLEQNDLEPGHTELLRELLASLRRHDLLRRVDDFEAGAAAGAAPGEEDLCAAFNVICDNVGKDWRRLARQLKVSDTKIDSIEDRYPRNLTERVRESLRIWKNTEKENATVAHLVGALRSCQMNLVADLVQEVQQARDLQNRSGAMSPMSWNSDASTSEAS
UniProt Q9H1R3: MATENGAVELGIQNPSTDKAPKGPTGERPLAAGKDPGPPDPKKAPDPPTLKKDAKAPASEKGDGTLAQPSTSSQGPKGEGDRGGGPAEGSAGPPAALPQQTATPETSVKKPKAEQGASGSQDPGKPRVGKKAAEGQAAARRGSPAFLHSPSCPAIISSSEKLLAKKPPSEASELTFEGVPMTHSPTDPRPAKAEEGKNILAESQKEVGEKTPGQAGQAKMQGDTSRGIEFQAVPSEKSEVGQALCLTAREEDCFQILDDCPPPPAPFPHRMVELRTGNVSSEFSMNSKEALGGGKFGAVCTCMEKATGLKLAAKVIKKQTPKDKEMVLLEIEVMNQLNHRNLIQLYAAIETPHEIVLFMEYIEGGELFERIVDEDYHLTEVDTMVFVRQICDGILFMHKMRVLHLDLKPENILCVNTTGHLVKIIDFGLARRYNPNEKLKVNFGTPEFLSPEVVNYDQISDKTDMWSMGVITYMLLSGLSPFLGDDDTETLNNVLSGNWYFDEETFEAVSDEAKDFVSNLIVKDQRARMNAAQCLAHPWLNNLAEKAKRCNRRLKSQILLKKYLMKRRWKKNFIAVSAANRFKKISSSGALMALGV

Molecular target: FADD-TAP (Fas-associated death domain protein with a C-terminal TAP affinity tag) (UniProt Q13158)
Assay: affinity purification with mass spectrometry

Myosin Light Chain Kinase 2 (MYLK2) (from UniProt Q9H1R3 1-596) (enzyme)
binding: binds
